# Results reported in PubChem BioAssay AID2685 (National Center for Advancing Translational Sciences (NCATS), 2010).
# Among all 320,000 compounds or so, about 2,100 (0.66%) were called active. This list was built around the results that the source calls inconclusive (neither active nor inactive); the mix of calls is not that of the screen. The call rests on the fitted dose curve; in most records, active means well fitted inhibition curve with a large enough effect in the signal ratio, with a control signal flat (not every such curve was filed as active); inconclusive means small, poorly fitted or top-dose-only effect, or effect the other way, or a change in a side signal; inactive means flat fitted curve, though single readings scatter; the % refers to the signal ratio. Potencies of inconclusive entries are doubtful fits and often do not repeat.
# Experiment: qHTS Assay for Lipid Storage Modulators in Drosophila S3 Cells
# Conditions: BODIPY lipid droplet fluorescence, 18-24 h, cells fed with added oleic acid; lipid storage change, negative = inhibition: at 46.1 µM (top of the series) unless noted
# Outline: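 Laser-scanning cytometry quantifies lipid droplet accumulation (500–530 nm total intensity; droplet/cell object ratio) in oleic acid-fed (400 uM added) Drosophila S3 cells treated with a concentration series. 20 uM Triacsin C defined 100% inhibition.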
# On the % scale 0 is the no-effect control and ±100 the full control effect; potency means the concentration at half of the fitted maximal effect.
SMILES,"lipid storage change, negative = inhibition",Potency
CCCNS(=O)(=O)c1cc(CN2C(=O)c3cccnc3C2=O)ccc1OC,inconclusive: -21.8%,
CCN1C(=NCC(C)C)N[C@@H](c2cccc(C(F)(F)F)c2)C(C(=O)OC)=C1C,inconclusive: -5.87%,
COc1ccccc1CNC(=O)[C@@H](NC(=O)C1CCN(C(=O)[C@@H]2CCCN2C(=O)OC(C)(C)C)CC1)C(C)C,inconclusive: -2.53%,
CC(c1nnc(SCC(=O)N2CC(=O)Nc3ccccc32)n1Cc1ccccc1)N(C)C (stereo not given),inconclusive: -113%,
O=C(COc1coc(CN2CCc3ccccc3C2)cc1=O)N1CCOCC1,,"inconclusive: 5.17 µM [activator, single point]"
OCCNc1ccc(Cl)cc1,inconclusive: -7.38%,
O=C(NCCOc1ccc(Cl)cc1)C1CCCCC1,inconclusive: 13%,
O=S(=O)(Nc1ccccc1Cl)c1ccc2[nH]c(=S)oc2c1,,"inconclusive: 29.1 µM [activator, single point]"
O=C(Nc1ccc(NC(=O)c2ccc([N+](=O)[O-])cc2[N+](=O)[O-])cc1)c1ccco1,,"inconclusive: 0.58 µM [activator, single point]"
Cn1c(=O)c2c(nc(NCc3ccccc3)n2Cc2ccc(F)cc2)n(C)c1=O,,"inconclusive: 16.4 µM [falling, single point]"
C=CCN(C(=O)CCC(=O)Nc1cc(C)on1)C(C(=O)NC(C)(C)C)c1ccc(OC)cc1 (stereo not given),inconclusive: 34.7%,
COc1cccc(/C=C2\SC(=S)N(CCCC(=O)N3CCCC3)C2=O)c1,inactive: -27.9%,
COc1ccccc1C(=O)COC(=O)c1nc2nc(C)cc(C)n2n1,inconclusive,
O=C(COc1ccc(S(=O)(=O)N2CCCC2)cc1)N1CCCCC1,,"inconclusive: 2.91 µM [falling, single point]"
CN1C(=O)[C@H]2[C@@H](c3ccc(F)cc3)N3C(=O)c4ccccc4NC(=O)[C@@]3(C)[C@H]2C1=O,inconclusive: -63.8%,
Cn1c(C(=O)OCC(=O)NCCc2ccccc2)cc2sccc21,,"inconclusive: 13 µM [activator, partial curve, poor fit]"
COc1ccccc1/C=C/C(=O)OCC(=O)c1cc(C)n(C)c1C,,active: 1.3 µM
CCc1ccc(NC(=O)CCNS(=O)(=O)c2cccc3nsnc23)cc1,,"inconclusive: 29.1 µM [rising, single point]"
Cc1nc(SCC(=O)N2CCC(C(N)=O)CC2)n[nH]1,inconclusive: -62.8%,
COc1ccc(NS(=O)(=O)c2ccc(-c3n[nH]c(=S)n3Cc3ccccc3)cc2)cc1,inconclusive: 18.2%,
